The values that follow come from article PMC8869308.

The chains behind the UniProt entries cited, without tags or fusion partners.
UniProt P22061: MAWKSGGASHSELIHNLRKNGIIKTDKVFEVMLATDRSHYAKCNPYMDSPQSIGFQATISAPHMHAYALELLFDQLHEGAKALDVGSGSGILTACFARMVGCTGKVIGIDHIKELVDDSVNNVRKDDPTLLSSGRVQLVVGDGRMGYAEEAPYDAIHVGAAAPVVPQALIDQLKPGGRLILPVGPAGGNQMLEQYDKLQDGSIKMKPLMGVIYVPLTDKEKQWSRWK
UniProt Q13148: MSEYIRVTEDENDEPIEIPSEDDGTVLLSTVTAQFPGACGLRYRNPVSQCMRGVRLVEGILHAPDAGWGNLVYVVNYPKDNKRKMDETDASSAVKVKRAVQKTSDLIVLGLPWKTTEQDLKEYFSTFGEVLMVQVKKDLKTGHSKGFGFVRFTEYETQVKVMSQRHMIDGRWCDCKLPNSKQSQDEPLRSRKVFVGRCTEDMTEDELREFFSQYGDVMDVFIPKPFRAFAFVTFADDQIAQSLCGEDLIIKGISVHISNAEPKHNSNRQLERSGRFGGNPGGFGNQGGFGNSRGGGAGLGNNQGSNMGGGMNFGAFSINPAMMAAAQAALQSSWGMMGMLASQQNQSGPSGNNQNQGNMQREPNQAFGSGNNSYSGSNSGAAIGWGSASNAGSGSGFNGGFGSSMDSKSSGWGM
UniProt P39748: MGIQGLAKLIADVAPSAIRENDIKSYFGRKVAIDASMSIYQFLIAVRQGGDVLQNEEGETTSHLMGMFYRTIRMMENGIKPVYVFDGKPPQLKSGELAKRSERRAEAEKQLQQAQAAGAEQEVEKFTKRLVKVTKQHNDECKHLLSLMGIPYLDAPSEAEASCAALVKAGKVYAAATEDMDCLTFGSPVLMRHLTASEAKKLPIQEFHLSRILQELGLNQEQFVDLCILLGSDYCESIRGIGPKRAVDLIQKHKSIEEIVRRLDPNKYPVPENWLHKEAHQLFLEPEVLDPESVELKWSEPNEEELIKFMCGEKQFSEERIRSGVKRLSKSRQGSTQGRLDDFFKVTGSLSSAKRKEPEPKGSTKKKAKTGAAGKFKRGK
UniProt P15927: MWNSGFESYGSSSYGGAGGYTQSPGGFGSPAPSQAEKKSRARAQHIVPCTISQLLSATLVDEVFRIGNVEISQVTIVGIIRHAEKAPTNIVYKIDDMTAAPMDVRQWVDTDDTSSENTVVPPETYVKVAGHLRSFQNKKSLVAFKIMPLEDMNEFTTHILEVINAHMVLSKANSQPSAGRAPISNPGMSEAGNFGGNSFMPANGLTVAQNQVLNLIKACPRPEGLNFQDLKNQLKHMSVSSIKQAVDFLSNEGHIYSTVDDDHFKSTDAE
UniProt Q96AE4: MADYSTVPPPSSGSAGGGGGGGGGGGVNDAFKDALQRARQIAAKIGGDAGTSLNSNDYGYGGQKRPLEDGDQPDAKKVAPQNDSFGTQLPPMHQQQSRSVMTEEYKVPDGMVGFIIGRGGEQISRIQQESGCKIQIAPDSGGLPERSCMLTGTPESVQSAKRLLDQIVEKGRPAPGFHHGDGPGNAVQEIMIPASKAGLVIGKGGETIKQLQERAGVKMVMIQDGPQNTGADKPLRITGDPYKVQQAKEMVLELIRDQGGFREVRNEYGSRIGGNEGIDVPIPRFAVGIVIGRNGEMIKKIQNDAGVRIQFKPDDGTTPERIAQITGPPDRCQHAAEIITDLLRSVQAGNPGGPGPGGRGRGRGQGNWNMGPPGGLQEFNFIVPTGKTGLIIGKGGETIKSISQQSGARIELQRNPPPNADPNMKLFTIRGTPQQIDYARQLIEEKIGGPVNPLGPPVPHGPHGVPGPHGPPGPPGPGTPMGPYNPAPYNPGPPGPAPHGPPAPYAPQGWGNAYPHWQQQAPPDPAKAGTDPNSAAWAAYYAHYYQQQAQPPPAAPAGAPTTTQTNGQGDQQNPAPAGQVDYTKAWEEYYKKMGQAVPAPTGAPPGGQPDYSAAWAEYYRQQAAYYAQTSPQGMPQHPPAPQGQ

No constants are given. Whether binding was seen depends on the method and setting. Binding seen in cells or lysates may run through a third protein. Some entries that bind do so weakly or less than the wild type.

Sequences and labels used below:
T1: T-cell intracellular antigen 1 (human) (UniProt P31483)
T1 sequence: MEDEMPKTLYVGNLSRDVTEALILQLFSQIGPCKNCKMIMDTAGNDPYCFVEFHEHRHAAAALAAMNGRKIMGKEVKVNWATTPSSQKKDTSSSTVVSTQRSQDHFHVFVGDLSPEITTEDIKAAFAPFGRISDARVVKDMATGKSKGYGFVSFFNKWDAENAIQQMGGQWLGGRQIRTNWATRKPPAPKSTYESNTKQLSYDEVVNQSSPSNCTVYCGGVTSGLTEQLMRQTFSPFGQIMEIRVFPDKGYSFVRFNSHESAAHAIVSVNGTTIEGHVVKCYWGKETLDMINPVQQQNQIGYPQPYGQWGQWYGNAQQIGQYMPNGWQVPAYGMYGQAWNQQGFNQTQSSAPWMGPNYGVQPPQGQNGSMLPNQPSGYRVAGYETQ

B1: translocase of outer mitochondrial membrane 40 (protein, UniProt O96008 1-361)
chain: MGNVLAASSPPAGPPPPPAPALVGLPPPPPSPPGFTLPPLGGSLGAGTSTSRSSERTPGAATASASGAAEDGACGCLPNPGTFEECHRKCKELFPIQMEGVKLTVNKGLSNHFQVNHTVALSTIGESNYHFGVTYVGTKQLSPTEAFPVLVGDMDNSGSLNAQVIHQLGPGLRSKMAIQTQQSKFVNWQVDGEYRGSDFTAAVTLGNPDVLVGSGILVAHYLQSITPCLALGGELVYHRRPGEEGTVMSLAGKYTLNNWLATVTLGQAGMHATYYHKASDQLQVGVEFEASTRMQDTSVSFGYQLDLPKANLLFKGSVDSNWIVGATLEKKLPPLPLTLALGAFLNHRKNKFQCGFGLTIG
B2: peptidase mitochondrial processing subunit beta (protein, UniProt O75439 44-489)
chain: STQAATQVVLNVPETRVTCLESGLRVASEDSGLSTCTVGLWIDAGSRYENEKNNGTAHFLEHMAFKGTKKRSQLDLELEIENMGAHLNAYTSREQTVYYAKAFSKDLPRAVEILADIIQNSTLGEAEIERERGVILREMQEVETNLQEVVFDYLHATAYQNTALGRTILGPTENIKSISRKDLVDYITTHYKGPRIVLAAAGGVSHDELLDLAKFHFGDSLCTHKGEIPALPPCKFTGSEIRVRDDKMPLAHLAIAVEAVGWAHPDTICLMVANTLIGNWDRSFGGGMNLSSKLAQLTCHGNLCHSFQSFNTSYTDTGLWGLYMVCESSTVADMLHVVQKEWMRLCTSVTESEVARARNLLKTNMLLQLDGSTPICEDIGRQMLCYNRRIPIPELEARIDAVNAETIREVCTKYIYNRSPAIAAVGPIKQLPDFKQIRSNMCWLRD

This assay deals with T1, T-cell intracellular antigen 1 (human). The assay is described as follows: co-IP; TIA1-overexpressing SK-N-SH cells treated with or without sodium arsenite; non-denaturing PLB lysate; anti-TIA1 antibody or IgG as control, protein A/G magnetic beads; immunoblot.
Consider “protein-L-isoaspartate O-methyltransferase (from UniProt P22061 1-227)”, for which the binding entry is “binds”.

For “TAR DNA-binding protein 43 (from UniProt Q13148 1-414)”, the binding result is reported as “binds”.

Take “Flap structure-specific endonuclease 1 (from UniProt P39748 1-380)”: the binding result is “binds”.

Consider “Replication protein A2 (from UniProt P15927 1-270)”, for which the binding result is given as “binds”.

With “far upstream element binding protein 1 (from UniProt Q96AE4 1-644)”, the binding result was “binds”.

Consider B1, for which the binding entry is on record as “binds”.

Consider B2, for which the binding entry is given as “binds”.
